Test results as given in the supplement of paper PMC10849652.
Some of the results follow.

By UniProt entry, the sequences of proteins in these tests, tags left out. Where a name states a change or a piece, a line headed by the entry shows the natural chain unless it says otherwise.
UniProt Q96B01: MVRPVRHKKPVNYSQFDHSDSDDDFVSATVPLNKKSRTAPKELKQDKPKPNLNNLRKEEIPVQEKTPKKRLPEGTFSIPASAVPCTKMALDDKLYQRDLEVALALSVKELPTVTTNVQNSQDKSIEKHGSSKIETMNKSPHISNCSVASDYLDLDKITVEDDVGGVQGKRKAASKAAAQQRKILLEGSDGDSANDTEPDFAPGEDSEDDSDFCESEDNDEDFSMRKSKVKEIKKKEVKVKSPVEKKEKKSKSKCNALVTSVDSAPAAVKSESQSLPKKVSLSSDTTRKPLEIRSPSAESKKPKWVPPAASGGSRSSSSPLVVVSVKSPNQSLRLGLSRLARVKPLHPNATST
UniProt Q5HYI8: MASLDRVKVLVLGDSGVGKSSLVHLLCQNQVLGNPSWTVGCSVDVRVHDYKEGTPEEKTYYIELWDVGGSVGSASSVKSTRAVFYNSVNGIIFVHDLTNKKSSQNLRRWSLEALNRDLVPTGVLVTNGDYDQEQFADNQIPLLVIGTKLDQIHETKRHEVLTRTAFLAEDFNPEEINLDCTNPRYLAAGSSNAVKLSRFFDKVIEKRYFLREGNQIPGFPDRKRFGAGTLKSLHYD
UniProt P47736: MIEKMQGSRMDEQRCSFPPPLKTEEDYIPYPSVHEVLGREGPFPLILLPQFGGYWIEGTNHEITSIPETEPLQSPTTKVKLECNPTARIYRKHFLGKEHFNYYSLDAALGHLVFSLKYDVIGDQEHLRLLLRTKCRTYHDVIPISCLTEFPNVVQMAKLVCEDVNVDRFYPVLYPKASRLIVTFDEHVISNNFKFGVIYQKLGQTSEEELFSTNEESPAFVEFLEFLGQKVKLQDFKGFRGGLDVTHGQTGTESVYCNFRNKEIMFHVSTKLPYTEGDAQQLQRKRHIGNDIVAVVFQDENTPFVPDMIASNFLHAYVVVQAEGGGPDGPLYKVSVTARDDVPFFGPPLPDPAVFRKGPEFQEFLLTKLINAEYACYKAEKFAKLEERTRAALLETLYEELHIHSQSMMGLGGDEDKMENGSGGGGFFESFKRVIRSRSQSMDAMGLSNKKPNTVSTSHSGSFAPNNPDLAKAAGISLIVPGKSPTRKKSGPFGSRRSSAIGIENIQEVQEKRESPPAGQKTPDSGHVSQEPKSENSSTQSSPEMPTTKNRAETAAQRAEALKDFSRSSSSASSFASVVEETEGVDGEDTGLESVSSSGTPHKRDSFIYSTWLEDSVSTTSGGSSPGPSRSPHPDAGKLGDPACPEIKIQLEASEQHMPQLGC
UniProt Q9NS91, whole entry, looked up: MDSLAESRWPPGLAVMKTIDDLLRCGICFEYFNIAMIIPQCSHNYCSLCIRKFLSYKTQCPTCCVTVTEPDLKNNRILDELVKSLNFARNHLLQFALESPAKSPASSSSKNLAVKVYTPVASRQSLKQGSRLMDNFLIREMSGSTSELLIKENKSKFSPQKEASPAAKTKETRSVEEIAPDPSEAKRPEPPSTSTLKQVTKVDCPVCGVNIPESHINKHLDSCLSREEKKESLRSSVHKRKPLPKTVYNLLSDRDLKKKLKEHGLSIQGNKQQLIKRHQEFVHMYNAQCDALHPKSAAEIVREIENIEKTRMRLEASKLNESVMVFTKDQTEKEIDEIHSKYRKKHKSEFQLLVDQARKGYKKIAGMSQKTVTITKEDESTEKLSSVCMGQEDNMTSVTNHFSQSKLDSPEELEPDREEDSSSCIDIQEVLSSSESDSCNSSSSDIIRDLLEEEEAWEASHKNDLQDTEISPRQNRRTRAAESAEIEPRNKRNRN
UniProt Q92930: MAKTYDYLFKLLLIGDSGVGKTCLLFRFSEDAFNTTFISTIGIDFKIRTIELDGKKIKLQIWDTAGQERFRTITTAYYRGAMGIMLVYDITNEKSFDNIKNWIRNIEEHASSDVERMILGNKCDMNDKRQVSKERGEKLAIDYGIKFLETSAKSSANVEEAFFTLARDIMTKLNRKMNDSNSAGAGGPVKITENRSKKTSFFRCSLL
UniProt O15315: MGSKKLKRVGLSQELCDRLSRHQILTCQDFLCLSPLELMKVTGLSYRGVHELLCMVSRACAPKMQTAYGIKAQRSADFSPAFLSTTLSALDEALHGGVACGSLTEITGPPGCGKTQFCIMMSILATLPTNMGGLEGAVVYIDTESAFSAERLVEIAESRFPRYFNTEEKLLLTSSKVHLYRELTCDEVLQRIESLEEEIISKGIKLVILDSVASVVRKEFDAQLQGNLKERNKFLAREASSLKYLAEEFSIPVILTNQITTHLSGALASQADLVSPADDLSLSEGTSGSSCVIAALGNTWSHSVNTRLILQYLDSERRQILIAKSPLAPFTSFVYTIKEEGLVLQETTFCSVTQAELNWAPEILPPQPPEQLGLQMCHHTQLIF
UniProt P78406: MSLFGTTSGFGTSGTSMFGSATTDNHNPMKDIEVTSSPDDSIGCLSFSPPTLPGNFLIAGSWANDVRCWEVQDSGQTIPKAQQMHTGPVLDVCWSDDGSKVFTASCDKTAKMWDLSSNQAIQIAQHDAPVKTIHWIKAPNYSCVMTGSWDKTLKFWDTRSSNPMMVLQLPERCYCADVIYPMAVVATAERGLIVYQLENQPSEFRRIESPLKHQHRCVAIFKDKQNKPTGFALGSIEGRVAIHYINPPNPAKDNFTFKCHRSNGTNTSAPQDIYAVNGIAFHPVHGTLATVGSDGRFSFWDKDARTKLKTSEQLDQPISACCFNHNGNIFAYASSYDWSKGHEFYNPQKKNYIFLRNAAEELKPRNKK
UniProt Q96S59, whole entry, looked up: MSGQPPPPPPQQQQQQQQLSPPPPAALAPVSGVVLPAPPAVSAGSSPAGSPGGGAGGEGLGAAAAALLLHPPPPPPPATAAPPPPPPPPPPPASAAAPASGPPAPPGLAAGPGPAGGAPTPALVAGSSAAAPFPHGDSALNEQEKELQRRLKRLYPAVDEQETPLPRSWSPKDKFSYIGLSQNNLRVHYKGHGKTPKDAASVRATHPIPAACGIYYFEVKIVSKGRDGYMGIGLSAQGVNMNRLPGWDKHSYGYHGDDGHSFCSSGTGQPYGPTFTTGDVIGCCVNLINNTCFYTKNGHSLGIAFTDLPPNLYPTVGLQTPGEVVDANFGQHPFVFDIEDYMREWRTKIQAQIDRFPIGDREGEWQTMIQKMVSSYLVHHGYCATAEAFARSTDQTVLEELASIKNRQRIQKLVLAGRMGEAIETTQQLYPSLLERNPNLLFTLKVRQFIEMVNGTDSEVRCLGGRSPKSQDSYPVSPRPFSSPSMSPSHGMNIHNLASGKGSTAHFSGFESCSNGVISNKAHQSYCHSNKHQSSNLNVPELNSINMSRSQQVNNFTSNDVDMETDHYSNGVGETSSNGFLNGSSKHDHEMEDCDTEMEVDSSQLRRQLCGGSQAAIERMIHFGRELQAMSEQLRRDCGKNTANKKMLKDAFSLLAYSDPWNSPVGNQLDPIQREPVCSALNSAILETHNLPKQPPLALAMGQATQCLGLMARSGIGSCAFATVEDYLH
UniProt Q9Y3L5: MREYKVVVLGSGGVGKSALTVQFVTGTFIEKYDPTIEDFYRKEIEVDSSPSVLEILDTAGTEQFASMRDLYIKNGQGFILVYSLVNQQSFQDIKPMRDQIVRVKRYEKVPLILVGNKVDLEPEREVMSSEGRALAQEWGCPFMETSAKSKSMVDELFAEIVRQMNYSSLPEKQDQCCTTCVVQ
UniProt P49756, whole entry, looked up: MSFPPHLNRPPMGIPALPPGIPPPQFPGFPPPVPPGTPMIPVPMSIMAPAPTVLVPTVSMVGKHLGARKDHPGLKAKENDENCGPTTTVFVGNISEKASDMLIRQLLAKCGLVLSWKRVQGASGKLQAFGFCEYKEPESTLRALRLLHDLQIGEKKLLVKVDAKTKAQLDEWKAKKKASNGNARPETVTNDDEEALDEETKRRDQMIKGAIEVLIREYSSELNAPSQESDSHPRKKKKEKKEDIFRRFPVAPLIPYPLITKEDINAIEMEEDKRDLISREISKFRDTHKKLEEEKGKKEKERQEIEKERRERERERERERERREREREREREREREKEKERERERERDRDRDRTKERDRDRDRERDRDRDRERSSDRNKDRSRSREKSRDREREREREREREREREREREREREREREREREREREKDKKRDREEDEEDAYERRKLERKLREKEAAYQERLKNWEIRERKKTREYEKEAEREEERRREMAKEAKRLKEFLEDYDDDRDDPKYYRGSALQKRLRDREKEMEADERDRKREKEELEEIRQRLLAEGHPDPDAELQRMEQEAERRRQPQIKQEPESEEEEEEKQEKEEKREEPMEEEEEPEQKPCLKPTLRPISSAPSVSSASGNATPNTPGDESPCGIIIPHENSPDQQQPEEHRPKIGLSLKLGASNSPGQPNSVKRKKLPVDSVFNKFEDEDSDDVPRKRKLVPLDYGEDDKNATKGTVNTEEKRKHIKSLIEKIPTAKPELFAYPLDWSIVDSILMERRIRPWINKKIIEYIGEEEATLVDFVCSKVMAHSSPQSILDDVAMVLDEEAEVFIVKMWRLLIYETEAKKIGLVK
UniProt P61019: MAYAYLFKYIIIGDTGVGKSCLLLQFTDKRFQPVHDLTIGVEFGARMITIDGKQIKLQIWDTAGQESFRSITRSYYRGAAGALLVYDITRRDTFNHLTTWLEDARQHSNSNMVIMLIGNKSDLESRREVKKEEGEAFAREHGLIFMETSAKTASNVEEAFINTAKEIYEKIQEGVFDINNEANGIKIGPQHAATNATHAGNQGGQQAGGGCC
UniProt Q9H2M9: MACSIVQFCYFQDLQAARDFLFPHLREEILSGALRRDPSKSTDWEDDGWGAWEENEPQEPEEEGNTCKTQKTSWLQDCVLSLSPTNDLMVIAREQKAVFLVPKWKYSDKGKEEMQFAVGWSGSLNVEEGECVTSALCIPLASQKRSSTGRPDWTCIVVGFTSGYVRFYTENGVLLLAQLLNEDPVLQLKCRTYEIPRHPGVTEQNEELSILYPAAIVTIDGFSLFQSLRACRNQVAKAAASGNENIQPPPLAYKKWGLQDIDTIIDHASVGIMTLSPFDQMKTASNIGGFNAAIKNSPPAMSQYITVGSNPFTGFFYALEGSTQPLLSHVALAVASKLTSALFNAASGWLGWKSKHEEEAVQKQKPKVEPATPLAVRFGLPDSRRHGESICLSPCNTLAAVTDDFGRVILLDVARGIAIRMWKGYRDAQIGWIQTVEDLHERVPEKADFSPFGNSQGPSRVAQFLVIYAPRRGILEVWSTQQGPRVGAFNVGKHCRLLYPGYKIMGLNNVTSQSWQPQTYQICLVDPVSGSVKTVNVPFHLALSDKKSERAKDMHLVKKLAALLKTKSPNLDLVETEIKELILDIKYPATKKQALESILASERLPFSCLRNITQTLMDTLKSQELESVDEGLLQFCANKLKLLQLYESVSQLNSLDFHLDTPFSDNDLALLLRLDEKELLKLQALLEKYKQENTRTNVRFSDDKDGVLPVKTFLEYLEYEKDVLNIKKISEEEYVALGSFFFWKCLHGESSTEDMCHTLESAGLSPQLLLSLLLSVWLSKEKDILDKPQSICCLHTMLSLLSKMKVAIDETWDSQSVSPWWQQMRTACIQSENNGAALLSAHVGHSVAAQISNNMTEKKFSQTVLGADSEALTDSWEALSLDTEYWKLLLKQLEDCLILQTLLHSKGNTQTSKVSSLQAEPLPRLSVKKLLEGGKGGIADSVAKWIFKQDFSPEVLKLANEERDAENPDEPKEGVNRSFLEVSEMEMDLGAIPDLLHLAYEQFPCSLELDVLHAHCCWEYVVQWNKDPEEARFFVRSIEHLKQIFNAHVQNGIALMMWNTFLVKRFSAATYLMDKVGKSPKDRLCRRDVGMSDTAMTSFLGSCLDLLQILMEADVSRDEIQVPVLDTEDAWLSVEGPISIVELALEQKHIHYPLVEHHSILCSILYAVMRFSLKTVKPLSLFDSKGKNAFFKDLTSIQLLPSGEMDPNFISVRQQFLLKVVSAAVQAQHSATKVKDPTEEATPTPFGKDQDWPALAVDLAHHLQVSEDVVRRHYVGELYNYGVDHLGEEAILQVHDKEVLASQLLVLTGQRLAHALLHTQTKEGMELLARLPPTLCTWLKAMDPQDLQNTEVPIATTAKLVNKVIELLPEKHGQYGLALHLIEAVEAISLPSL
UniProt P62491: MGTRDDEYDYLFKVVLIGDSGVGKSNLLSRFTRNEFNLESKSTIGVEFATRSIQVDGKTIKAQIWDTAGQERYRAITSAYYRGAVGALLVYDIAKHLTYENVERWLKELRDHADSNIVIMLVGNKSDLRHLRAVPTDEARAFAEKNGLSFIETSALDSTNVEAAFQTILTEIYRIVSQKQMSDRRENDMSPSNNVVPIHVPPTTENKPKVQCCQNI
UniProt O14966: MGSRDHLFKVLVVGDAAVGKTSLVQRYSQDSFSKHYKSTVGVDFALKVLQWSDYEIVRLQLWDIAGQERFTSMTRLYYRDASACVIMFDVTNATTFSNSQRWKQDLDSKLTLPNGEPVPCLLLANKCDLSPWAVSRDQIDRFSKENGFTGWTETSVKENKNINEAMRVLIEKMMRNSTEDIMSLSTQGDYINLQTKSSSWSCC

What was measured:
Test in all cases: log2 fold change, soluble protein after heating vs DMSO (PISA); higher = thermal stabilisation; K562 cells, 10 uM, 30 min; active = over 0.2 and 3.5 SD of the protein, either way, in both replicates (recomputed)
saracatinib = compound: CN1CCN(CCOc2cc(OC3CCOCC3)c3c(Nc4c(Cl)ccc5c4OCO5)ncnc3c2)CC1 [saracatinib]
Procedure, shortened: (§1)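 K562 cells at 2×10^6 cells/mL were given 10 μM compound for 30 min. Aliquots then went through 3 min of heating across 48°C-58°C, were pooled, and were extracted in PBS with 0.5% NP-40 at 4°C, and the supernatant after 21,000xg for 90 min was quantified by TMTpro 16plex LC-MS/MS with channel sums equalised. Thermal stability relative to control samples, from duplicates, is given as log2 fold change.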

sotrastaurin = compound: CN1CCN(c2nc(C3=C(c4c[nH]c5ccccc45)C(=O)NC3=O)c3ccccc3n2)CC1 [sotrastaurin]
Procedure, shortened: as §1

alvocidib = compound: CN1CC[C@H](c2c(O)cc(O)c3c(=O)cc(-c4ccccc4Cl)oc23)[C@H](O)C1 [alvocidib]
Procedure, shortened: as §1

Tubastatin A = compound: CN1CCc2c(c3ccccc3n2Cc2ccc(C(=O)NO)cc2)C1 [Tubastatin A]
Procedure, shortened: as §1

[1] = compound: CNC(=O)C1=CC=CC=C1NC2=NC(=NC=C2Cl)NC3=C(C=C(C=C3)N4CCOCC4)OC
Procedure, shortened: as §1

defactinib = compound: CNC(=O)c1ccc(Nc2ncc(C(F)(F)F)c(NCc3nccnc3N(C)S(C)(=O)=O)n2)cc1 [defactinib]
Procedure, shortened: as §1

rucaparib = compound: CNCc1ccc(-c2[nH]c3cc(F)cc4c3c2CCNC4=O)cc1 [rucaparib]
Procedure, shortened: as §1

[2] = compound: CNc1nc(-c2ccc3c(N)n[nH]c3c2)cc(N2C[C@@H](C(=O)NC3CCCCC3)CC[C@H]2C)n1
Procedure, shortened: as §1

encorafenib = compound: COC(=O)N[C@@H](C)CNc1nccc(-c2cn(C(C)C)nc2-c2cc(Cl)cc(NS(C)(=O)=O)c2F)n1 [encorafenib]
Procedure, shortened: as §1

[3] = compound: COC(=O)[C@H](CCSC)NC(=O)C1=C(C=C(C=C1)NC[C@H](CS)N)C2=CC=CC=C2
Procedure, shortened: as §1

Target	log2 fold change (saracatinib)	log2 fold change (sotrastaurin)	log2 fold change (alvocidib)	log2 fold change (Tubastatin A)	log2 fold change [1]	log2 fold change (defactinib)	log2 fold change (rucaparib)	log2 fold change [2]	log2 fold change (encorafenib)	log2 fold change [3]
RAB4B isoform 2 (UniProt P61018)	inactive: 0.013	inactive: 0.06	inactive: -0.009	inactive: -0.002	inactive: -0.014	inactive: -0.037	inactive: -0.022	inactive: -0.037	inactive: -0.024	inactive: 0.012
RAD51AP1 (UniProt Q96B01)	inactive: 0.014	inactive: 0.035	inactive: -0.012	inactive: 0.139	inactive: -0.024	inactive: -0.006	inactive: -0.065	inactive: -0.041	inactive: -0.109	inactive: 0.036
RABL3 (UniProt Q5HYI8)	inactive: -0.044	inactive: 0.01	inactive: -0.04	inactive: -0.013	inactive: 0.036	inactive: -0.034	inactive: -0.046	inactive: -0.02	inactive: 0.009	inactive: -0.023
RABGEF1 isoform 3 (UniProt Q9UJ41)	inactive: -0.031	inactive: 0.007	inactive: -0.003	inactive: 0.08	inactive: 0.017	inactive: -0.045	inactive: -0.04	inactive: 0.031	inactive: -0.046	inactive: 0.056
RABGGTB (UniProt P53611)	inactive: 0.046	inactive: 0.134	inactive: -0.073	inactive: 0.051	inactive: -0.063	inactive: -0.081	inactive: 0	inactive: -0.04	inactive: -0.01	inactive: 0.073
RANBP3 (UniProt Q9H6Z4)	inactive: 0.035	inactive: 0.002	inactive: -0.045	inactive: -0.006	inactive: -0.01	inactive: -0.013	inactive: -0.027	inactive: -0.027	inactive: -0.002	inactive: 0.034
RAD21 (UniProt O60216)	inactive: 0.023	inactive: -0.048	inactive: -0.043	inactive: -0.004	inactive: -0.04	inactive: -0.092	inactive: -0.056	inactive: 0.002	inactive: 0.002	inactive: 0.005
RAP2B (UniProt P61225)	inactive: 0.068	inactive: -0.037	inactive: 0.012	inactive: 0.015	inactive: -0.045	inactive: -0.051	inactive: 0.014	inactive: -0.018	inactive: -0.044	inactive: -0.002
RAP1GAP isoform 4 (UniProt P47736)	inactive: 0.025	inactive: -0.171	inactive: -0.178	inactive: 0.017	inactive: 0.022	inactive: -0.129		inactive: 0.086		inactive: -0.089
RAD18 (UniProt Q9NS91)	inactive: 0.002	inactive: -0.224	inactive: -0.252	inactive: 0.013	inactive: 0.174	inactive: -0.153		inactive: -0.047		inactive: -0.021
RAB8B (UniProt Q92930)	inactive: 0.084	inactive: -0.058		inactive: -0.054	inactive: 0.006	inactive: -0.004	inactive: -0.014	inactive: 0.056	inactive: -0.062	inactive: -0.06
RABEPK (UniProt Q7Z6M1)	inactive: 0.048	inactive: 0.009	inactive: 0.004	inactive: 0.007	inactive: -0.107	inactive: -0.032	inactive: -0.013	inactive: -0.054	inactive: -0.023	inactive: 0.009
RAD51B (UniProt O15315)	inactive: 0.176	inactive: 0.088	inactive: -0.133	inactive: 0.018	inactive: -0.039		inactive: 0.047	inactive: -0.005	inactive: -0.197	
RACK1 (UniProt P63244)	inactive: 0.065	inactive: 0.01	inactive: 0.004	inactive: 0.012	inactive: 0.052	inactive: 0.022	inactive: 0.024	inactive: 0.023	inactive: -0.014	inactive: -0.03
RAE1 (UniProt P78406)	inactive: -0.051	inactive: 0	inactive: -0.056	inactive: -0.011	inactive: 0.052	inactive: -0.012	inactive: 0.102	inactive: 0.201	inactive: 0.072	inactive: -0.046
RANBP9 (UniProt Q96S59)	inactive: 0.041	inactive: -0.107	inactive: -0.023	inactive: -0.004	inactive: 0.028	inactive: -0.038	inactive: 0.048	inactive: -0.005	inactive: 0.035	inactive: 0.004
RAPGEF2, A0A2R8YGD3	inactive: -0.049	inactive: -0.041	inactive: 0.152	inactive: 0.065	inactive: -0.003	inactive: 0.041		inactive: -0.16		inactive: 0.015
RAP2C (UniProt Q9Y3L5)	inactive: 0.04	inactive: 0.026		inactive: -0.014	inactive: -0.058	inactive: -0.044	inactive: -0.003	inactive: -0.054	inactive: -0.041	inactive: 0.01
RABAC1 (UniProt Q9UI14)	inactive: 0.066	inactive: 0.012		inactive: 0.045	inactive: 0.004	inactive: 0.077	inactive: -0.017	inactive: -0.089	inactive: -0.049	inactive: -0.02
RAD9A (UniProt Q99638)	inactive: 0.082	inactive: 0.024	inactive: -0.024	inactive: -0.046	inactive: -0.038	inactive: 0.004	inactive: 0.046	inactive: -0.056	inactive: -0.005	inactive: -0.022
RBM25 (UniProt P49756)	inactive: -0.025	inactive: -0.109		inactive: 0.058	inactive: -0.164	active: -0.24	inactive: 0.03	inactive: -0.091	inactive: -0.094	inactive: 0.014
RALY (UniProt Q9UKM9)	inactive: -0.091	inactive: -0.031		inactive: 0.226	inactive: -0.01	inactive: 0.089	inactive: 0.221	inactive: 0.066	inactive: 0.073	inactive: -0.021
RAB2A (UniProt P61019)	inactive: 0.03	inactive: 0.093	inactive: 0.062	inactive: -0.002	inactive: 0.004	inactive: -0.023	inactive: -0.087	inactive: -0.015	inactive: -0.001	inactive: 0.006
RAB3GAP2 (UniProt Q9H2M9)	inactive: -0.111	inactive: -0.195		inactive: 0.058	inactive: 0.017	inactive: -0.064	inactive: 0.205	inactive: 0.039	inactive: 0.189	inactive: -0.089
RAB11A (UniProt P62491)	inactive: 0.027	inactive: 0.05	inactive: -0.01	inactive: 0	inactive: -0.061	inactive: 0.016	inactive: 0.022	inactive: -0.118	inactive: -0.04	inactive: 0.104
RAB3IL1 (UniProt Q8TBN0)	inactive: 0.007	inactive: -0.02		inactive: -0.02	inactive: 0.023	inactive: -0.042	inactive: -0.005	inactive: 0.001	inactive: -0.03	inactive: -0.022
RAI14 isoform 2 (UniProt Q9P0K7)	inactive: -0.191	inactive: -0.081	inactive: -0.01	inactive: -0.009	inactive: -0.005	inactive: -0.223		inactive: -0.06		inactive: -0.233
RALGAPB (UniProt Q86X10)	inactive: -0.077	inactive: 0.002	inactive: 0.009	inactive: 0.146			inactive: 0.012	inactive: 0.194	inactive: -0.095	
RAB29 (UniProt O14966)	inactive: 0.105	inactive: 0.082	inactive: -0.041	inactive: -0.067	inactive: 0.001	inactive: -0.01	inactive: 0.012	inactive: 0.007	inactive: -0.01	inactive: -0.054

As a short view, some entries already given:
Target	log2 fold change (saracatinib)	log2 fold change (sotrastaurin)	log2 fold change (alvocidib)	log2 fold change (Tubastatin A)	log2 fold change [1]	log2 fold change (defactinib)	log2 fold change (rucaparib)	log2 fold change [2]	log2 fold change (encorafenib)	log2 fold change [3]
RAP2B (UniProt P61225)	inactive: 0.068	inactive: -0.037	inactive: 0.012	inactive: 0.015	inactive: -0.045	inactive: -0.051	inactive: 0.014	inactive: -0.018	inactive: -0.044	inactive: -0.002
RAP1GAP isoform 4 (UniProt P47736)	inactive: 0.025	inactive: -0.171	inactive: -0.178	inactive: 0.017	inactive: 0.022	inactive: -0.129		inactive: 0.086		inactive: -0.089
